Results deposited as PubChem BioAssay AID743454 (Peter MacCallum Cancer Centre, 2014)

Assay: 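Genes whose loss kills vorinostat-resistant colon cancer cells under vorinostat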 (primary screen)
Cell system: human HCT116-VR colon cancer cells, selected for vorinostat resistance
Reagent: siRNA pool against human genes, 40 nM siRNA pool
Duration: vorinostat for 24 h, read-out about 72 h after transfection
Conditions: vorinostat at 2.5 µM final
Measurement: 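Cell viability by CellTiter-Fluor and caspase 3/7 activity by luminescence, each scaled to mock wells per plate, duplicates averaged, then robust z-scored over all plates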
Direction: viability robust z-score: higher = more viable cells than screen typical; caspase robust z-score: higher = more caspase 3/7 activity than screen typical
Call rule: 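Hits are knock-downs in viability class RV1/RV2 or caspase class CA1/CA2, excluding ones that killed cells in the no-drug cell-count arm; hits then retested with single siRNAs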
Here is one part, drawn at random, of about 18,000 deposited reagents. Of all reagents, 450 (2.5%) are marked active. 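Single biological run; no consistent viability z cut-off exists, so the class columns, not z-scores, define the calls.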 The numbers tell different reagents against one gene apart.

target	reagent no.	viability hit class	caspase hit class	viability robust z-score	caspase robust z-score	call
CSAG2 (CSAG family member 2)	1	no change	no change	-0.76	1.26	inactive
CSAG2 (CSAG family member 2)	2	no change	no change	-0.28	2.28	inactive
RND3 (Rho family GTPase 3)	1	no change	no change	0.38	0.59	inactive
SLC7A11	1	no change	no change	-0.06	-1.13	inactive
CCDC171 (coiled-coil domain containing 171)	1	no change	no change	0.62	0.49	inactive
CRELD2 (CRELD disulfide isomerase 2)	1	no change	no change	0.45	-0.84	inactive
LAPTM5 (lysosomal protein transmembrane 5)	1	no change	no change	0.57	0.05	inactive
FREM1 (FRAS1 related extracellular matrix 1)	1	no change	no change	-0.77	-0.98	inactive
NCBP3 (nuclear cap binding subunit 3)	1	no change	no change	-0.2	0.18	inactive
DNAJC30 (DnaJ heat shock protein family (Hsp40) member C30)	1	no change	no change	0.8	0.26	inactive
VSX2 (visual system homeobox 2)	1	no change	no change	-0.31	1.49	inactive
EVL (Enah/Vasp-like)	1	no change	no change	0.45	1.21	inactive
OR1L3 (olfactory receptor family 1 subfamily L member 3)	1	no change	no change	0.24	-0.72	inactive
KICS2 (KICSTOR subunit 2)	1	no change	no change	-0.1	1.45	inactive
MAP1S (microtubule associated protein 1S)	1	RV2 (reduced viability)	no change	-2.92	0.72	active
FRMD6 (FERM domain containing 6)	1	no change	no change	-0.08	-0.96	inactive
UTP6 (UTP6 small subunit processome component)	1	no change	no change	-2.52	-0.55	inactive
AGO1 (argonaute RISC component 1)	1	no change	no change	0.38	0.4	inactive

The list goes on; the last 4 above are carried over.
target	reagent no.	viability hit class	caspase hit class	viability robust z-score	caspase robust z-score	call
MAP1S (microtubule associated protein 1S)	1	RV2 (reduced viability)	no change	-2.92	0.72	active
FRMD6 (FERM domain containing 6)	1	no change	no change	-0.08	-0.96	inactive
UTP6 (UTP6 small subunit processome component)	1	no change	no change	-2.52	-0.55	inactive
AGO1 (argonaute RISC component 1)	1	no change	no change	0.38	0.4	inactive
GOLPH3L (golgi phosphoprotein 3 like)	1	no change	no change	-0.18	-1.38	inactive
CUL4B (cullin 4B)	1	no change	no change	1.08	-0.22	inactive
TMT1A (thiol methyltransferase 1A)	1	no change	no change	-0.99	3.72	inactive
APPL1	1	no change	no change	0.24	-0.3	inactive
GGA2	1	no change	no change	-0.03	0.5	inactive
GATAD2A (GATA zinc finger domain containing 2A)	1	no change	no change	0.08	4.22	inactive
CCDC57 (coiled-coil domain containing 57)	1	no change	no change	0.8	-0.18	inactive
HOXD3 (homeobox D3)	1	no change	no change	0.96	-0.14	inactive
ZC3H11D (zinc finger CCCH-type containing 11D)	1	no change	CA1 (caspase activation)	0.11	6.48	active
OR51I2 (olfactory receptor family 51 subfamily I member 2)	1	no change	no change	-1.31	-0.38	inactive
NMI (N-myc and STAT interactor)	1	no change	no change	-0.18	-0.68	inactive
FILIP1 (filamin A interacting protein 1)	1	no change	no change	1.96	0.14	inactive
ETHE1 (ETHE1 persulfide dioxygenase)	1	no change	no change	-0.3	0.68	inactive
GAST (gastrin)	1	no change	no change	-0.32	1.95	inactive
UBXN10 (UBX domain protein 10)	1	no change	no change	-1.34	0.46	inactive
CBX1 (chromobox 1)	1	no change	no change	-1.25	-1.03	inactive
UNC119B (unc-119 lipid binding chaperone B)	1	no change	no change	0.31	-0.79	inactive
HOXC5 (homeobox C5)	1	no change	no change	-2.94	0.87	inactive
DNAH10 (dynein axonemal heavy chain 10)	1	no change	no change	-0.08	0.6	inactive
NYNRIN (NYN domain and retroviral integrase containing)	1	no change	no change	-1.61	2.91	inactive
CTPS1 (CTP synthase 1)	1	no change	no change	0.31	-0.63	inactive
